Binding data for seven substances are collected here from article doi:10.1101/791277.

The chains behind the UniProt entries cited, without tags or fusion partners. Where a name states a change or a piece, a line headed by the entry shows the natural chain unless it says otherwise. Residues count along the entry.
UniProt P27986, whole entry: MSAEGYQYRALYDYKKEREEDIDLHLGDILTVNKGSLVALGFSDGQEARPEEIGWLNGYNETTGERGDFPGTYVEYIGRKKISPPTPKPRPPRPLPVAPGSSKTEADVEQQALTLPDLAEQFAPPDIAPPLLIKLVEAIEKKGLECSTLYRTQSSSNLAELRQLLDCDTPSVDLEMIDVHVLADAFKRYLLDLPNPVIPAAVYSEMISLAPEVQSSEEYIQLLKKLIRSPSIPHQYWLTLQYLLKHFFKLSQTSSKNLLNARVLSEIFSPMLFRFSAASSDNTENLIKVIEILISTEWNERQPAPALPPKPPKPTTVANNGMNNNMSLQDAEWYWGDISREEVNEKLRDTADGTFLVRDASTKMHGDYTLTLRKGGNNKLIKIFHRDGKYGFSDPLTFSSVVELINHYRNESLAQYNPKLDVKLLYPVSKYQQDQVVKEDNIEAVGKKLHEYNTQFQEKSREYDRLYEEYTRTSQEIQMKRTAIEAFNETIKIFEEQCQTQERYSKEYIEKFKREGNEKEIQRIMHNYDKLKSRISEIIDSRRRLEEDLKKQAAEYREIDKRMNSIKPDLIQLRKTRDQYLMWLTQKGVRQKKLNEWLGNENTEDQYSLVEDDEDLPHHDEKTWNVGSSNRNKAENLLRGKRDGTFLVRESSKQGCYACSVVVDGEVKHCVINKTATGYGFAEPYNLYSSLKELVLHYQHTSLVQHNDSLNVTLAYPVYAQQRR
UniProt P27986, 479-724: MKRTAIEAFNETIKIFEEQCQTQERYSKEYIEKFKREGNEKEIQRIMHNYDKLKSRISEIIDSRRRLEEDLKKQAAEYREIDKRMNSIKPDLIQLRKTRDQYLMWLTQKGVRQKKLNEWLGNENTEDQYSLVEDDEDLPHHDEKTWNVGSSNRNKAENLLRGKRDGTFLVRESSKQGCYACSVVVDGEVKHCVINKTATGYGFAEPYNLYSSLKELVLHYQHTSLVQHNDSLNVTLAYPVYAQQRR
UniProt P27986, 614-720: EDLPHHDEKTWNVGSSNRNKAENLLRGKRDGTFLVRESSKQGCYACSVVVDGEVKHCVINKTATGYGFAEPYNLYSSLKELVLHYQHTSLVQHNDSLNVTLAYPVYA
UniProt O08908, whole entry: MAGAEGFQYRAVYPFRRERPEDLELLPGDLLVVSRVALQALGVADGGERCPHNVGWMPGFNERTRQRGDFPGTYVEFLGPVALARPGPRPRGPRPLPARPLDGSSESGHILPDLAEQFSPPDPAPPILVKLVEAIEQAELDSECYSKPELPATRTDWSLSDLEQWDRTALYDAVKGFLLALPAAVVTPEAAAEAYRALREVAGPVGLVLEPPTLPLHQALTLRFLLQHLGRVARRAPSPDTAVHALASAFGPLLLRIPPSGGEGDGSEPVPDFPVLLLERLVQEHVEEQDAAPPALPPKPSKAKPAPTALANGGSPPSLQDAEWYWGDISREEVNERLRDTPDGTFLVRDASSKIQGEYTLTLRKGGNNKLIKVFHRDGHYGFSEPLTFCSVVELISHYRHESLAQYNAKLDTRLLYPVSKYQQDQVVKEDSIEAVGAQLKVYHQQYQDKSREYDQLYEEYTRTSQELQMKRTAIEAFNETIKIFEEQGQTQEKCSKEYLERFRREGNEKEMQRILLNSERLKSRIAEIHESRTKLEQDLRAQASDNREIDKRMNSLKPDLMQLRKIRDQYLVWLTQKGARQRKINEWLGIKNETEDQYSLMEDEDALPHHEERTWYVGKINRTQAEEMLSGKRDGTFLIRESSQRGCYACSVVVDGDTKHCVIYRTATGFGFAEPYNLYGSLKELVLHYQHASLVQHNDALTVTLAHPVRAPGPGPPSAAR
UniProt O08908, 603-712: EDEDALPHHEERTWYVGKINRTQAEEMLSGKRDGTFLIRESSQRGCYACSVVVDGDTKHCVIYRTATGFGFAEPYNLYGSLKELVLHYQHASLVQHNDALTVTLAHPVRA
UniProt O00459, 342-728: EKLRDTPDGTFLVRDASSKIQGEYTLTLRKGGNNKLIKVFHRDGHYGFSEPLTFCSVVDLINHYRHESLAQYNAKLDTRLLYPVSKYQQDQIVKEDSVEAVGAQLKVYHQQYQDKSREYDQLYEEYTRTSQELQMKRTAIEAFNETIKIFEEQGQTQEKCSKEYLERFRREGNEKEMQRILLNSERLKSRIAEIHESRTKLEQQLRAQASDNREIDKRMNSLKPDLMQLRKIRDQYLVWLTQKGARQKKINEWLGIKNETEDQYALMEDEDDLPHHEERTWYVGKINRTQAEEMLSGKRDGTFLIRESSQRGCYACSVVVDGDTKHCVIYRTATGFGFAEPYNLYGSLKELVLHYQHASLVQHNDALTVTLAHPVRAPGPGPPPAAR

Read-outs that look alike come from different tables or passages of the source. These are yes or no findings as the source states them, for the method shown. For some assays here: In cells and extracts the contact can be indirect. Some results given as binding are weak or reduced against the parent protein; the word gives no strength. For some assays here: Where a sequence is shown, tags or fusion partners need not be part of it.

The target of test [1] is FLAG-p85α (full-length human PI3-Kinase regulatory subunit p85α) (human) (UniProt P27986). Kind of test: co-IP.
In test [2] the target is FLAG-p55α (full-length human PI3-Kinase regulatory subunit p55α) (human) (UniProt P27986). The test can be described thus: co-IP.
In test [3] the target is FLAG-p50α (full-length human PI3-Kinase regulatory subunit p50α) (human) (UniProt P27986). The test can be described thus: co-IP.
In test [4] the target is FLAG-p85β (full-length mouse PI3-Kinase regulatory subunit p85β) (mouse) (UniProt O08908). Kind of test: co-IP.
In test [5] the target is FLAG-p85α (full-length human PI3-Kinase regulatory subunit p85α) (human) (UniProt P27986). The test can be described thus: co-IP. The source holds these as a separate data set.
In test [6] the target is FLAG-p55γ (full-length human PI3-Kinase regulatory subunit p55γ) (human) (UniProt Q92569). Kind of test: co-IP.
The target of test [7] is FLAG-p50α (full-length human PI3-Kinase regulatory subunit p50α) (human) (UniProt P27986). Kind of test: co-IP. This is another data set of the same source.
Test [8] addresses FLAG-p85α (full-length human PI3-Kinase regulatory subunit p85α) (human) (UniProt P27986). The test can be described thus: co-IP. This is another data set of the same source.
The target in test [9] is FLAG-p50α (full-length human PI3-Kinase regulatory subunit p50α) (human) (UniProt P27986). Kind of test: co-IP. This is another data set of the same source.
The target in test [10] is FLAG-p50α Y307D (phosphomimic) (human) (UniProt P27986). The test can be described thus: co-IP.
Test [11] addresses FLAG-p85α (full-length human PI3-Kinase regulatory subunit p85α) (human) (UniProt P27986). The test can be described thus: co-IP. This is another data set of the same source.
The target in test [12] is T1, ACK (1-489), Gal4 DNA-binding domain fusion (yeast two-hybrid bait) (UniProt Q07912).
T1 sequence: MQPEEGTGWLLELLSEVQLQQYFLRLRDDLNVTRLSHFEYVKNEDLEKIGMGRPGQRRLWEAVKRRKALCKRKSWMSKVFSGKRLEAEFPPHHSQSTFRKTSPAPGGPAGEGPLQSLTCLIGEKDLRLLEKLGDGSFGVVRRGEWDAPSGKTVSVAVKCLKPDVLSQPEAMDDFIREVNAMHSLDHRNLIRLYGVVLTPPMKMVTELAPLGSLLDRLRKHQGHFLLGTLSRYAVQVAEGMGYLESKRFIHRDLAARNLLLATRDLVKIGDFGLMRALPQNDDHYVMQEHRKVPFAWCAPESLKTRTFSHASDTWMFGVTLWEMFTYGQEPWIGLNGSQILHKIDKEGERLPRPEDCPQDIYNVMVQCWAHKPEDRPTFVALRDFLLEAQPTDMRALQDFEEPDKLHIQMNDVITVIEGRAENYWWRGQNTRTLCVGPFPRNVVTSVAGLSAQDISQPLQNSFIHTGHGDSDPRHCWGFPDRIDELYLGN
The test can be described thus: two-hybrid.

Test [13] has as its target T2, p85α pY607 peptide, [5-FAM]-TEDQ-[pY]-SLVEDE (human).
T2 sequence (peptide, 5-FAM on the N-terminus; phosphotyrosine at the fifth residue (Tyr607)): TEDQYSLVEDE
The test can be described thus: fluorescence polarisation. (In general: In fluorescence polarisation assays a small probe gives low polarisation when free and higher when bound to something large.)

In the case of “HA-ACK (full-length activated Cdc42-associated kinase) (from UniProt Q07912 1-1038)”, the binding result in test [1], in test [2], in test [3], in test [4], in [5] and in test [6] was “binds” throughout.

As for V5-p85β (from UniProt O08908 1-722), the binding result in test [7], in [8], in test [9], in test [10], in [1] and in [11] was “binds” in each case.

Consider “p55γ (120-461), Gal4 activation domain fusion (yeast two-hybrid prey) (from UniProt Q92569 120-461) (domain or fragment)”, for which the binding result in test [12] is listed as “binds”.

Regarding “p85α (479-724), Gal4 activation domain fusion (yeast two-hybrid prey) (from UniProt P27986 479-724) (domain or fragment)”, the binding entry in test [12] is on record as “binds”.

Turning to “p85α cSH2 (614-720) (from UniProt P27986 614-720) (domain or fragment)”, the binding result in test [13] is “no binding”.

On to “p85β (342-728), Gal4 activation domain fusion (yeast two-hybrid prey) (from UniProt O00459 342-728) (domain or fragment)”, for which the binding entry in test [12] is on record as “binds”.

Take “p85β cSH2 (603-712) (from UniProt O08908 603-712) (domain or fragment)”: in test [13], the binding entry is reported as “no binding”.
